Drawing on paper PMC4764323, this text covers binding for 2 molecules.

Protein sequences, listed by entry. Tags and fused reporters are not part of them. Residues count along the entry.
UniProt P22607, residues 23-806: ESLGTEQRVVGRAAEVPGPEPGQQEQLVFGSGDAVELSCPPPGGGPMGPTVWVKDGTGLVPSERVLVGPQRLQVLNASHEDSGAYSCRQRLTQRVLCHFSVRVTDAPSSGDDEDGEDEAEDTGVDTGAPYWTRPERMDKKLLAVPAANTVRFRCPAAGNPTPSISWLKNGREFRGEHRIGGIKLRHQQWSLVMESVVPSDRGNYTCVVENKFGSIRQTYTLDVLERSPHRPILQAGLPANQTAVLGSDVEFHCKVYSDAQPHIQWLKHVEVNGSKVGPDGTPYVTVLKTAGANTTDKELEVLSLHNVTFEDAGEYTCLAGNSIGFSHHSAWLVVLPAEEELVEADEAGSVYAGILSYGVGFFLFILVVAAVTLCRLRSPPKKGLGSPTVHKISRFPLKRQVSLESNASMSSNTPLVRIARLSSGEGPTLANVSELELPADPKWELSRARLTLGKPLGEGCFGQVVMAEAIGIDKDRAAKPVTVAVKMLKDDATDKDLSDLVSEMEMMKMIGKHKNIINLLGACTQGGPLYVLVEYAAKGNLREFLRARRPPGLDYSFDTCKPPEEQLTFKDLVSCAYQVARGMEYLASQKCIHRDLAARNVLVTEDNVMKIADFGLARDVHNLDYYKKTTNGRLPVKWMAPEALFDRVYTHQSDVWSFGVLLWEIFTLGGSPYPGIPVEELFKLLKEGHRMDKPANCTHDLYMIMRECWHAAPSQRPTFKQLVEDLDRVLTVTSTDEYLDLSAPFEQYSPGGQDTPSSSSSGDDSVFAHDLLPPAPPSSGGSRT

This test has as its target FLAG-tagged FGFR3 on transfected 293T cells (UniProt P22607). The test is described as follows: co-IP; culture medium of 293T cells transfected with leg1a or leg1a^N70A plasmid incubated with 293T cells expressing FLAG-FGFR3 at 4°C for one hour; cells washed with PBS, lysed in NP40 buffer; IP with anti-FLAG antibody, Leg1 detected with the Leg1 antibody.

Substitutions are numbered along the chain they refer to. Numbers in names are those of the source. These are yes or no findings as the source states them, for the method shown. In cells and extracts the contact can be indirect. Some entries that bind do so weakly or less than the wild type.

B1: Leg1a (liver-enriched gene 1a protein), secreted from transfected 293T cells (protein, UniProt A5PF61 23-364)
chain: AVVTENGLPIQWGKAPSDLSHLPISDTGVQVNPWDYSQRMTMYKMLINATNAYMSSMGPGEQENPLWSLPLQLGWKLKSGRLADPTLDSSSTCGSEASDPVCISPLSWFACVNYYLSVLPFLAAVETGVVSSGGHQVLIQVPAEVAQDYCSSYSDCSTKHPNAMAKWHLFFQSLRQVSQSEDSDFNKKDSILGLMWAAEEESLQTASGACTERQKLYSSPEVSFQQSWLNSAAFVSAAHFHANIERSEKFMAPLPSRVLQEADSPPNIADLSTEENHTLYIFGWMNSVNQLLGGSLVNLWRKAMCSAQAREKGQALLHDLILDPKFPGSSLWSILSEMSTSC
modifications: N-glycosylation at N70
As for B1, the binding entry was “binds”.

B2: Leg1a^N70A, secreted from transfected 293T cells (protein, UniProt A5PF61 23-364)
chain: B1 chain with N48A
In the case of B2, the binding result was “no binding”.
